A: 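Assay on Mycobacterium tuberculosis, filed only as a heat shock assay from Cornell; the read-out is not stated. The concentration is filed as 10 mM, unlikely as a test dose, so the dose is not known. Higher reads as stronger inhibition (inferred: compounds with an IC50 in retests scored well above the rest). About 69,000 compounds were tested under these conditions; 1.4% (about 930) showed 50% or more at least once.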
B: 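Whole-cell assay for inhibitors of Mycobacterium tuberculosis growth, labelled Cornell in the record; the read-out is not stated. The concentration is filed as 10 mM, unlikely as a test dose, so the dose is not known. Higher means stronger inhibition (inferred from two other growth screens of the library). Size under these conditions: about 53,000 compounds, about 900 of them at 50% or above in at least one test.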

Values are the deposited “Percent Effect”, in %. How 0% and 100% were set is not recorded. Most values in the screen are low, and negative values occur. The compounds are a random part of those screened. A dash means the value is not listed here; it may have been measured.

Result for Cc1ccc(OCC(C)NS(=O)(=O)Cc2ccon2)cc1 (centres undefined) was A: 12.36%; B: -14.45%. CN(C)c1nc(N)nc(CN2CCCC(c3ccccc3)CC2)n1 (centres undefined) read A: -13.13%. With COc1cc2nc(NCCN3CCNC3=O)cc(C)c2cc1OC the screen gave A: 14.5%; B: -10.48%. CCCOCCOC(=O)c1ccc2c(c1)[nH]c(=O)n2C read A: -45.08%; B: -7.989%. CCN(CC)S(=O)(=O)CC(=O)N1CCc2ccc(Cl)cc21 gave A: -19.51%; B: 4.859%. Cl.O=C(NCc1ccccc1F)C1=NOC2(CCNC2)C1 (centres undefined) gave A: -41.07%; B: 0.2179%. With CCn1cc(C(=O)N2CCCN(c3cccnn3)CC2)c2ccccc21 the screen gave A: -1.724%; B: -17.07%. Result for O=C(CN1CCNC1=O)NCc1ccc2sccc2c1 was A: -10.19%; B: -4.47%.

With CS(=O)(=O)CCCOc1cccc(-n2cccn2)c1 the screen gave A: -1.071%; B: -26.23%. CN(C)C(=O)COCc1nn(C)c2c1CCN(Cc1ccco1)C2.O=C(O)C(F)(F)F read A: -21.14%; B: 9.849%. With CCc1cc(C(=O)N2CCc3c(ncn3CCc3ccccc3)C2)[nH]n1 the screen gave A: -1.928%. CN(Cc1ccc(F)c(F)c1)Cc1cc2c(cc1Br)OCCO2 read A: -27.53%; B: 14.51%. For CC(C)NC(=O)N1CCC(c2nnc3n2CCNC3)CC1 the result was A: -25.81%. For Cc1ccc(S(=O)(=O)N2CC(C)Oc3ncccc32)c(F)c1 (centres undefined) the result was A: -1.374%; B: 36.19%. Cc1ccc(C(CC(=O)O)NC(=O)CCc2cccs2)cc1 (centres undefined) gave A: 1.457%; B: -17.43%. Result for Cc1c(C(=O)NCCC(=O)N2CCOCC2)sc2ccc(F)cc12 was A: 10.54%.

CCCc1nc(CN(C)CCOc2ccccc2)cs1 gave A: 15.47%; B: 39.8%. Result for CC(Cn1ccnc1)NCc1csc2c1CCCC2 (centres undefined) was A: -15.37%; B: 52.3%. For CC1CN(C)CCN1Cc1cccc(C(=O)N(C)C)c1 (centres undefined) the result was A: -15.2%; B: -6.89%. With CC(C)N1CCC(NC(=O)NCc2cccnc2)C1 (centres undefined) the screen gave A: -14.09%; B: 14.99%. Result for O=C(NC1CCCN(c2ccccc2F)C1)c1ccon1 (centres undefined) was A: 10.33%; B: 9.197%. For Cc1ccc(N2CCCN(C(=O)CCCn3ccnc3C)CC2)nn1 the result was A: -20.99%; B: -17.18%. For COC(=O)C1CN(Cc2cc(F)ccc2Br)CCO1 (centres undefined) the result was A: -153.9%. Result for CN(CCCC1CCCO1)C(=O)c1cccc(C#N)c1 (centres undefined) was A: -3.072%; B: -3.781%.

O=C(c1cccs1)N1CC(C(=O)N2CCCC2)C2(CCOCC2)C1 (centres undefined) read A: -10.71%; B: 17.74%. With CN(Cc1cnc(N)nc1)C(=O)c1coc(COc2ccccc2)n1 the screen gave A: -18.71%. With NC(=O)c1csc(N2CCCC(c3n[nH]c(=O)n3-c3ccccc3)C2)n1 (centres undefined) the screen gave A: 12.32%; B: 33.17%. N#CCCN(Cc1ccco1)C(=O)Cc1ccc(-n2cnnn2)cc1 gave A: -9.675%; B: 1.265%. Cc1nnc(NC(=O)N2CCN(Cc3ccc(F)cc3)C(=O)C2)s1 read A: 13.48%. Cc1cnn(CC2CCCN2Cc2nc(N)c3ccccc3n2)c1 (centres undefined) read A: 64.38%. For O=C(O)c1ccccc1-c1ccc(CN2CCC(CO)CC2)cn1 the result was A: 0.3313%; B: 19.7%. CNc1cc(CCNS(=O)(=O)c2ccccc2)nc(-c2ccccn2)n1 gave A: 99.14%; B: 45.23%.

Cc1nc(CN2CCN(C(=O)CCc3ccco3)CC2)cs1 gave A: 13.16%; B: -35.15%. Cc1ccc(CC(=O)N2CCCC(c3cc(C(N)=O)[nH]n3)C2)cn1 (centres undefined) read A: -20.6%. CN(C)c1ccc(C(O)CNS(=O)(=O)C2CC2)cc1 (centres undefined) read A: -11.35%; B: -44.63%. Result for Cc1cc(N2CCC3(CCC(=O)N(CCCO)C3)CC2)nc(N(C)C)n1 was A: -2.634%; B: -7.07%. Result for COc1ccc(C(=O)N2CCC3(CCC(=O)N(C(C)C)C3)CC2)cc1C was A: 5.208%; B: -24.08%. For NC(=O)c1cn[nH]c1C1CCCN1C(=O)COc1ccccc1 (centres undefined) the result was A: 18.14%; B: 6.51%. Result for COc1cc2c(cc1OC)CN(C(=O)NCC1CCCO1)CC2 (centres undefined) was A: 21.09%; B: 11.21%. COc1ccc(S(=O)(=O)NCC(O)c2sccc2C)cc1C (centres undefined) gave A: 11.9%; B: 9.179%.

Result for CCc1oc2ccc(NS(=O)(=O)CC)cc2c1C(=O)OC was A: -18.43%; B: 19.47%. Cn1cc(C(=O)CC2CCCN2C(=O)c2ccc(Cl)o2)cn1 (centres undefined) read A: 13.47%; B: 28.92%. With Cc1occc1C(=O)N(CCN(C)C)Cc1ccccn1 the screen gave A: 9.112%; B: 12.92%. Result for CNC(=O)c1cn[nH]c1C1(C)CCCN(Cc2ccccc2OC)C1 (centres undefined) was A: -14.17%; B: -20.55%. Result for Cc1nc(N)nc(C)c1CC(=O)N1CCCCC1c1cccc(F)c1 (centres undefined) was A: 5.238%; B: 46.69%. CCc1n[nH]c(C2CN(C(=O)Cc3ccc(C)nc3)CCO2)n1 (centres undefined) read A: -16.28%; B: -39.87%. With Cc1cc(C)n(C2CCCN(C(=O)c3ccc(F)c(F)c3)C2)n1 (centres undefined) the screen gave A: 6.086%; B: 20.83%.

For reference, 4 entries once more:

structure,A,B
Cc1ccc(CC(=O)N2CCCC(c3cc(C(N)=O)[nH]n3)C2)cn1 (centres undefined),-20.6%,-
N#CCCN(Cc1ccco1)C(=O)Cc1ccc(-n2cnnn2)cc1,-9.675%,1.265%
CCc1cc(C(=O)N2CCc3c(ncn3CCc3ccccc3)C2)[nH]n1,-1.928%,-
CCc1oc2ccc(NS(=O)(=O)CC)cc2c1C(=O)OC,-18.43%,19.47%

Data taken from ChEMBL document CHEMBL3988442, “University of Dundee, Small-Polar-MMV Screening Library” (2021).